Laboratory results as given in patent publication US11433099B2, “Immunotherapy with B*08 restricted peptides and combination of peptides against cancers and related methods” (Immatics Biotechnologies GmbH, priority 2018, dated 2022).

These substances were tested on HLA peptide pools from tumor and normal tissue samples (assay: Identification and relative LC-MS quantitation of HLA-presented tumor associated peptides (presentation profiles)). Details: FIGS. 1A to 1L; N=38 normal samples, N=91 tumor samples.
Parameters: species or system human
For “EVYLRMYQL (listed as Homo sapiens) [SEQ ID NO: 80]”, the “over-presentation in HLA-B*08 cancer tissues compared to a panel of HLA-B*08 normal samples” value was “over-presentation”. For “DLQKKAQAL (listed as Homo sapiens) [SEQ ID NO: 30]”, the “over-presentation in HLA-B*08 cancer tissues compared to a panel of HLA-B*08 normal samples” value was “over-presentation”. In the case of “MAPLKMLAL (listed as Homo sapiens) [SEQ ID NO: 11]”, the “over-presentation in HLA-B*08 cancer tissues compared to a panel of HLA-B*08 normal samples” value is reported as “over-presentation”.

Same assay, conditions: FIGS. 1M and 1O; N=592 normal samples, N=711 tumor samples
In the case of “SLAESEASL (listed as Homo sapiens) [SEQ ID NO: 289]”, the “over-presentation in HLA-A*02 cancer tissues compared to a panel of HLA-A*02 normal samples” value is reported as “over-presentation”.

Same assay, conditions: Table 8; cancer entities on which the peptide was presented
With “289 (SLAESEASL; listed as Homo sapiens) [compound 289]” the “Peptide Presentation on cancer entities” value was “CCC, GBC, HCC, HNSCC, NSCLCadeno, NSCLCsquam, NSCLCother, OC, OSCAR, PACA, UEC”.

Same assay, conditions: cancer entities on which the peptide was found presented (Table 8A); value = entity abbreviations
“59 (FDFRGKTKVF; listed as Homo sapiens) [compound 59]” was tested, and the “Peptide Presentation on cancer entities” value was “NSCLCother”. For “199 (IPFIHLPEI; listed as Homo sapiens) [compound 199]”, the “Peptide Presentation on cancer entities” value was “GBM, HCC”. “18 (LSLVRKAL; listed as Homo sapiens) [compound 18]” was tested, and the “Peptide Presentation on cancer entities” value was “HNSCC”. With “8 (FVRPKLVTI; listed as Homo sapiens) [compound 8]” the “Peptide Presentation on cancer entities” value was “GBM”. “192 (EEKHFTTL; listed as Homo sapiens) [compound 192]” was tested, and the “Peptide Presentation on cancer entities” value was “NSCLCadeno”. For “171 (FPSQVPKQVL; listed as Homo sapiens) [compound 171]”, the “Peptide Presentation on cancer entities” value was “NSCLCother”. With “166 (VLSGGRILAL; listed as Homo sapiens) [compound 166]” the “Peptide Presentation on cancer entities” value was “HCC”. In the case of “112 (NALDPLSAL; listed as Homo sapiens) [compound 112]”, the “Peptide Presentation on cancer entities” value is reported as “GBM, NSCLCadeno, OSCAR”. “242 (KPQSLQLVL; listed as Homo sapiens) [compound 242]” was tested, and the “Peptide Presentation on cancer entities” value was “NSCLCother”. “151 (DRHLTNRVL; listed as Homo sapiens) [compound 151]” was tested, and the “Peptide Presentation on cancer entities” value was “MEL”. “190 (ELLNRIYF; listed as Homo sapiens) [compound 190]” was tested, and the “Peptide Presentation on cancer entities” value was “MEL”. “32 (NPYLKLVL; listed as Homo sapiens) [compound 32]” was tested, and the “Peptide Presentation on cancer entities” value was “CLL, NHL, NSCLCother, NSCLCsquam, SCLC”. For “243 (EGVPPGTVL; listed as Homo sapiens) [compound 243]”, the “Peptide Presentation on cancer entities” value was “NSCLCsquam”. “124 (HSWTRTSV; listed as Homo sapiens) [compound 124]” was tested, and the “Peptide Presentation on cancer entities” value was “PRCA”. For “234 (VFRVGISF; listed as Homo sapiens) [compound 234]”, the “Peptide Presentation on cancer entities” value was “GBC”. With “27 (WVLTNIVAL; listed as Homo sapiens) [compound 27]” the “Peptide Presentation on cancer entities” value was “NSCLCadeno, NSCLCsquam”. In the case of “241 (NAYEAPSI; listed as Homo sapiens) [compound 241]”, the “Peptide Presentation on cancer entities” value is reported as “GBM”. “106 (HLHLLETSI; listed as Homo sapiens) [compound 106]” was tested, and the “Peptide Presentation on cancer entities” value was “HNSCC”. In the case of “12 (DFYLRSSAF; listed as Homo sapiens) [compound 12]”, the “Peptide Presentation on cancer entities” value is reported as “NSCLCsquam”. In the case of “99 (NVKIRFLE; listed as Homo sapiens) [compound 99]”, the “Peptide Presentation on cancer entities” value is reported as “HNSCC”. In the case of “207 (LRKRKSPE; listed as Homo sapiens) [compound 207]”, the “Peptide Presentation on cancer entities” value is reported as “HNSCC”. In the case of “248 (SEVNKHETAL; listed as Homo sapiens) [compound 248]”, the “Peptide Presentation on cancer entities” value is reported as “HNSCC”. “175 (MRFQQFLFA; listed as Homo sapiens) [compound 175]” was tested, and the “Peptide Presentation on cancer entities” value was “HNSCC”. “244 (HALPPYITVL; listed as Homo sapiens) [compound 244]” was tested, and the “Peptide Presentation on cancer entities” value was “MEL, NHL”. For “193 (LGGLRLTAL; listed as Homo sapiens) [compound 193]”, the “Peptide Presentation on cancer entities” value was “NSCLCadeno”. “94 (DQLLRHVM; listed as Homo sapiens) [compound 94]” was tested, and the “Peptide Presentation on cancer entities” value was “MEL, NSCLCsquam”. “215 (NPLIEIISI; listed as Homo sapiens) [compound 215]” was tested, and the “Peptide Presentation on cancer entities” value was “SCLC”. In the case of “81 (MYRKEQYL; listed as Homo sapiens) [compound 81]”, the “Peptide Presentation on cancer entities” value is reported as “NSCLCother, UEC”. “111 (GAGLRITAPL; listed as Homo sapiens) [compound 111]” was tested, and the “Peptide Presentation on cancer entities” value was “NSCLCsquam, OC”. For “156 (ILKEQSSSSF; listed as Homo sapiens) [compound 156]”, the “Peptide Presentation on cancer entities” value was “HNSCC, NSCLCsquam”. For “130 (LPAPYQHQL; listed as Homo sapiens) [compound 130]”, the “Peptide Presentation on cancer entities” value was “NSCLCother”. With “189 (APDNVLLTL; listed as Homo sapiens) [compound 189]” the “Peptide Presentation on cancer entities” value was “BRCA, GBM, HCC, NSCLCsquam, OSCAR, SCLC”. In the case of “36 (IVKIKVQEL; listed as Homo sapiens) [compound 36]”, the “Peptide Presentation on cancer entities” value is reported as “CLL, NHL, NSCLCother, NSCLCsquam”. In the case of “223 (DVSARKLRV; listed as Homo sapiens) [compound 223]”, the “Peptide Presentation on cancer entities” value is reported as “SCLC”. For “186 (DLISPRQPRL; listed as Homo sapiens) [compound 186]”, the “Peptide Presentation on cancer entities” value was “HNSCC”. “53 (DLRKLKRQL; listed as Homo sapiens) [compound 53]” was tested, and the “Peptide Presentation on cancer entities” value was “CLL, MEL, NSCLCadeno”. In the case of “19 (FTLLRRLSL; listed as Homo sapiens) [compound 19]”, the “Peptide Presentation on cancer entities” value is reported as “MEL”. For “13 (EPFTRPVL; listed as Homo sapiens) [compound 13]”, the “Peptide Presentation on cancer entities” value was “OSCAR, PACA, RCC, SCLC, UBC”. With “1 (ALKLKVAEL; listed as Homo sapiens) [compound 1]” the “Peptide Presentation on cancer entities” value was “NSCLCadeno, NSCLCsquam”. For “88 (MLLCLSLEL; listed as Homo sapiens) [compound 88]”, the “Peptide Presentation on cancer entities” value was “GBC, HNSCC, MEL, NSCLCadeno, NSCLCsquam, SCLC”. “216 (EARPPSPAV; listed as Homo sapiens) [compound 216]” was tested, and the “Peptide Presentation on cancer entities” value was “GBM”. For “144 (IEQIRAVL; listed as Homo sapiens) [compound 144]”, the “Peptide Presentation on cancer entities” value was “HNSCC”. With “41 (RGALRTLSL; listed as Homo sapiens) [compound 41]” the “Peptide Presentation on cancer entities” value was “NSCLCadeno, UEC”. In the case of “84 (YITRQFVQF; listed as Homo sapiens) [compound 84]”, the “Peptide Presentation on cancer entities” value is reported as “NSCLCother”. “155 (LPASFPAVL; listed as Homo sapiens) [compound 155]” was tested, and the “Peptide Presentation on cancer entities” value was “NSCLCother”. For “29 (ELFLHPVL; listed as Homo sapiens) [compound 29]”, the “Peptide Presentation on cancer entities” value was “CLL, MEL, NHL, NSCLCother”. In the case of “51 (ERRVKVSSL; listed as Homo sapiens) [compound 51]”, the “Peptide Presentation on cancer entities” value is reported as “UEC”. For “117 (VGPNGFKSL; listed as Homo sapiens) [compound 117]”, the “Peptide Presentation on cancer entities” value was “PACA, UEC”. With “198 (FPLTSIIAI; listed as Homo sapiens) [compound 198]” the “Peptide Presentation on cancer entities” value was “NSCLCother”. With “147 (HAMDGASHL; listed as Homo sapiens) [compound 147]” the “Peptide Presentation on cancer entities” value was “MEL”. In the case of “69 (ELARQRLL; listed as Homo sapiens) [compound 69]”, the “Peptide Presentation on cancer entities” value is reported as “HNSCC, NSCLCadeno, NSCLCsquam”. With “170 (SPANVRGQSL; listed as Homo sapiens) [compound 170]” the “Peptide Presentation on cancer entities” value was “GBC”. In the case of “10 (MGKFKQCF; listed as Homo sapiens) [compound 10]”, the “Peptide Presentation on cancer entities” value is reported as “UEC”. With “7 (AARLRPAL; listed as Homo sapiens) [compound 7]” the “Peptide Presentation on cancer entities” value was “CLL”. With “23 (DIKKTNESL; listed as Homo sapiens) [compound 23]” the “Peptide Presentation on cancer entities” value was “BRCA, CLL, HNSCC, NHL, NSCLCsquam”. For “212 (EEYKFPSL; listed as Homo sapiens) [compound 212]”, the “Peptide Presentation on cancer entities” value was “NSCLCsquam, UEC”. In the case of “230 (DVYFHHVL; listed as Homo sapiens) [compound 230]”, the “Peptide Presentation on cancer entities” value is reported as “HNSCC, NSCLCadeno, NSCLCsquam”. With “95 (SRNPRGFFL; listed as Homo sapiens) [compound 95]” the “Peptide Presentation on cancer entities” value was “PACA, UEC”. In the case of “77 (LPKLPVPPL; listed as Homo sapiens) [compound 77]”, the “Peptide Presentation on cancer entities” value is reported as “NSCLCadeno, NSCLCsquam”. “201 (TASAMQHVL; listed as Homo sapiens) [compound 201]” was tested, and the “Peptide Presentation on cancer entities” value was “NSCLCother”. With “60 (MLHIKKAEV; listed as Homo sapiens) [compound 60]” the “Peptide Presentation on cancer entities” value was “MEL”. In the case of “37 (EAFSRASL; listed as Homo sapiens) [compound 37]”, the “Peptide Presentation on cancer entities” value is reported as “PRCA”. “33 (WIGLRNLDL; listed as Homo sapiens) [compound 33]” was tested, and the “Peptide Presentation on cancer entities” value was “CLL”. For “76 (HPRLKVNLL; listed as Homo sapiens) [compound 76]”, the “Peptide Presentation on cancer entities” value was “CCC, NSCLCother, OSCAR, SCLC, UBC, UEC”. “251 (DAAAFFKSV; listed as Homo sapiens) [compound 251]” was tested, and the “Peptide Presentation on cancer entities” value was “GBM”. “6 (NRQKRFVL; listed as Homo sapiens) [compound 6]” was tested, and the “Peptide Presentation on cancer entities” value was “NSCLCadeno, PACA, UBC, UEC”. With “104 (FAFGEPREL; listed as Homo sapiens) [compound 104]” the “Peptide Presentation on cancer entities” value was “MEL, OSCAR”. With “227 (SRFPGMSVL; listed as Homo sapiens) [compound 227]” the “Peptide Presentation on cancer entities” value was “MEL”. With “86 (RPIHHPLVL; listed as Homo sapiens) [compound 86]” the “Peptide Presentation on cancer entities” value was “BRCA, HCC”. With “82 (SIRKRPML; listed as Homo sapiens) [compound 82]” the “Peptide Presentation on cancer entities” value was “NSCLCother”. With “131 (MSTKTTSI; listed as Homo sapiens) [compound 131]” the “Peptide Presentation on cancer entities” value was “GBM, PACA, RCC”. For “75 (YARLKNVLL; listed as Homo sapiens) [compound 75]”, the “Peptide Presentation on cancer entities” value was “NSCLCadeno”.
